Reference: patent US20230382910A1, “HETEROARYL COMPOUNDS FOR THE TREATMENT OF PAIN” (VERTEX PHARMACEUTICALS INCORPORATED, priority 2022, published 2023)
Some entries share one result that the patent states for a list of compounds.

The chains behind the UniProt entries cited, without tags or fusion partners. Residues count along the entry.
UniProt Q9Y5Y9, 660-890 limits assumed: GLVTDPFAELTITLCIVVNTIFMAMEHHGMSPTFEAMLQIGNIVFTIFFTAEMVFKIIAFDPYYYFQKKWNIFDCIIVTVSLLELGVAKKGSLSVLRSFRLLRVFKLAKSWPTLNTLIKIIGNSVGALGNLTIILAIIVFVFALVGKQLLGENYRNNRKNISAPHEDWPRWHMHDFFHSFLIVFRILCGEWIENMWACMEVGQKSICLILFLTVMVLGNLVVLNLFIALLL
UniProt Q9Y5Y9, 1148-1722 limits assumed: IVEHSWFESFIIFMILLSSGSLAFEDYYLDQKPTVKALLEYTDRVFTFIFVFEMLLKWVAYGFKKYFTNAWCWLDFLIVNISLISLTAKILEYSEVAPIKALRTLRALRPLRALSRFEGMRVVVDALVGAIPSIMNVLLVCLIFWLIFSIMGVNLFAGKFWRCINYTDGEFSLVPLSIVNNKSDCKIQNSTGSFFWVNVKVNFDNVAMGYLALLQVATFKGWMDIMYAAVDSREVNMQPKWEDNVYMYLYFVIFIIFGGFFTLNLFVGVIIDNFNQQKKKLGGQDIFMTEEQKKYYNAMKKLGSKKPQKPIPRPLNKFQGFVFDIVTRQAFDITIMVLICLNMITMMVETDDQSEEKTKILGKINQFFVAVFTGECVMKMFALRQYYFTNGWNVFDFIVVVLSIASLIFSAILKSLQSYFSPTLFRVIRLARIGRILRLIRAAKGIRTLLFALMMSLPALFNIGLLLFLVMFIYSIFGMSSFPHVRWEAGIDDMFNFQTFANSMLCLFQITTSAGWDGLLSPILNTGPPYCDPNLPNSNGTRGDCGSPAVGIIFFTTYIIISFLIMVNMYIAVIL
UniProt Q9Y5Y9, 126-399 limits assumed: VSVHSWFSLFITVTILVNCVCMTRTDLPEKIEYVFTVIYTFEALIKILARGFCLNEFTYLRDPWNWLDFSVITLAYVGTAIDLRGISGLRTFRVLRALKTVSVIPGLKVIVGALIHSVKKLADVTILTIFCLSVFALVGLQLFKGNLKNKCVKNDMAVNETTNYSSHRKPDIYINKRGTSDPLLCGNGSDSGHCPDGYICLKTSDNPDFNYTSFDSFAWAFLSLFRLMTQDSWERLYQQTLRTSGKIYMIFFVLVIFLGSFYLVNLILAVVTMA

Molecular target: human NaV 1.8 (Homo sapiens, UniProt Q9Y5Y9)
Test: E-VIPR Assay Detecting and Measuring NaV Inhibition Properties
Type: cell-based
Conditions: HEK cells expressing a truncated form of human NaV 1.8; electrical stimulation, membrane potential FRET dyes; read-out: measured IC50 value in the E-VIPR Assay
From the text: E-VIPR Assay Detecting and Measuring NaV Inhibition Properties
Sodium ion channels are voltage-dependent proteins that can be activated by inducing membrane voltage changes by applying electric fields. The electrical stimulation instrument and methods of use, referred to as E-VIPR, are described in International Publication No. WO 2002/008748 A3 and C.-J. Huang et al. Characterization of voltage-gated sodium channel blockers by electrical stimulation and fluorescence detection of membrane potential, 24 Nature Biotech. 439-46 (2006), both of which are incorporated by reference in their entirety. The instrument comprises a microtiter plate handler, an optical system for exciting the coumarin dye while simultaneously recording the coumarin and oxonol emissions, a waveform generator, a current- or voltage-controlled amplifier, and parallel electrode pairs that are inserted into assay plate wells. Under integrated computer control, this instrument passes user-programmed electrical stimulus protocols to cells within the wells of the microtiter plate.
16-20 hours prior to running the assay on E-VIPR, HEK cells expressing a truncated form of human NaV 1.8 with full channel activity were seeded into microtiter 384-well plates, pre-coated with matrigel, at a density of 25,000 cells per well. 2.5-5% KIR2.1 BacMam virus was added to the final cell suspension before seeding into cell plates. HEK cells were grown in Dulbecco's Modified Eagle's Medium (DMEM) supplemented with 10% FBS (Fetal Bovine Serum, qualified; Sigma #F4135), 1% NEAA (Non-Essential Amino Acids, Gibco #11140), 1% HEPES (Gibco #15630), 1% Pen-Strep (Penicillin-Streptomycin; Gibco #15140) and 5 μg/ml Blasticidin (Gibco #R210-01). Cells were expanded in 5-layer CellSTACK culture chambers or cell culture flasks with vented caps, with 90-95% humidity and 5% CO2.
Compound Loading Buffer (2× concentration): Na/TMA Cl Bath1 Buffer containing HS (omitted in experiments run in the absence of human serum (HS)) 50%, VABSC-1 1 mM, BSA 0.2 mg/ml (in Bath-1), KCl 9 mM, DMSO 0.625%.
Assay Protocol (7 Key Steps):
1) To reach the final concentration in each well, 375 nL of each compound was pre-spotted (in neat DMSO) into polypropylene compound plates at 240× desired final concentration from an intermediate stock concentration of 0.075 mM, in an 11-point dose response, 3-fold dilution, resulting in a top dose of 300 nM final concentration in the cell plate. Vehicle control (neat DMSO), and positive control (an established NaV1.8 inhibitor, 25 μM final in assay in DMSO) were added manually to the outermost columns of each plate respectively. The compound plate was backfilled with 45 μL per well of Compound Loading Buffer resulting in a 240-fold dilution of compound following a 1:1 transfer of compound into the cell plate (see Step 6). Final DMSO concentration for all wells in the assay was 0.625% (0.75% DMSO was supplemented to the Compound Loading Buffer for a final DMSO concentration of 0.625%). This assay dilution protocol was adjusted to enable a higher dose range to be tested in the presence of HS or if the final assay volume was altered.
2) Hexyl Dye Solution was prepared.
3) Cell plates were prepared. On the day of the assay, the media was aspirated, and the cells were washed three times with 80 μL of Bath-1 buffer, maintaining 25 μL residual volume in each well.
4) 25 μL per well of Hexyl Dye Solution was dispensed into the cell plates. The cells were incubated for 20 minutes at room temperature or ambient conditions in darkness.
5) 45 μL per well of Compound Loading Buffer was dispensed into compound plates.
6) The cell plates were washed three times with 80 μL per well of Bath-1 Buffer, leaving 25 µL of residual volume. Then 25 μL per well from compound plate was transferred to each cell plate. The mixture was incubated for 30 minutes at room temperature/ambient conditions. […]

Compound	IC50 [µM]
O=c1cc(-c2cccc3c2OC(F)(F)O3)[nH]c2ccccc12 [Compound 42, 2-(2,2-difluoro-1,3-benzodioxol-4-yl)-1H-quinolin-4-one]	≥ 5
O=c1cc(-c2cccc3c2CCC3)[nH]c2ccccc12 [Compound 43, 2-indan-4-yl-1H-quinolin-4-one]	≥ 5
Cc1ccc(Cl)c(-c2cc(=O)c3ccccc3[nH]2)c1F [Compound 44, 2-(6-chloro-2-fluoro-3-methyl-phenyl)-1H-quinolin-4-one]	≥ 5
Cn1ccc2cc(-c3cc(=O)c4ccccc4[nH]3)ccc21 [Compound 45, 2-(1-methylindol-5-yl)-1H-quinolin-4-one]	≥ 5
O=c1cc(-c2cccc(F)c2F)[nH]c2ccccc12 [Compound 46, 2-(2,3-difluorophenyl)-1H-quinolin-4-one]	≥ 5
Cc1cccc(C)c1-c1cc(=O)c2ccccc2[nH]1 [Compound 47, 2-(2,6-dimethylphenyl)-1H-quinolin-4-one]	≥ 5
Cc1cc(-c2cc(=O)c3ccccc3[nH]2)cc(C)c1OC(C)C [Compound 48, 2-(4-isopropoxy-3,5-dimethyl-phenyl)-1H-quinolin-4-one]	≥ 5
O=c1cc(-c2ccc(OC(F)(F)F)cc2)[nH]c2ccccc12 [Compound 49, 2-[4-(trifluoromethoxy)phenyl]-1H-quinolin-4-one]	≥ 5
COc1cc(C)ccc1-c1cc(=O)c2ccccc2[nH]1 [Compound 50, 2-(2-methoxy-4-methyl-phenyl)-1H-quinolin-4-one]	≥ 5
Cc1ccc(-c2cc(=O)c3ccccc3[nH]2)cc1C [Compound 51, 2-(3,4-dimethylphenyl)-1H-quinolin-4-one]	≥ 5
COc1ccc(-c2cc(=O)c3ccccc3[nH]2)c(C)c1 [Compound 53, 2-(4-methoxy-2-methyl-phenyl)-1H-quinolin-4-one]	≥ 5
Cc1cc(C(C)(C)C)cc(C)c1-c1cc(=O)c2ccccc2[nH]1 [Compound 55, 2-(4-tert-butyl-2,6-dimethyl-phenyl)-1H-quinolin-4-one]	< 0.5
O=c1cc(-c2cncc(C(F)(F)F)c2)[nH]c2ccccc12 [Compound 57, 2-[5-(trifluoromethyl)-3-pyridyl]-1H-quinolin-4-one]	≥ 5
Cc1cc(-c2cc(=O)c3ccccc3[nH]2)cnc1C(F)(F)F [Compound 58, 2-[5-methyl-6-(trifluoromethyl)-3-pyridyl]-1H-quinolin-4-one]	≥ 5
Cc1ncc(-c2cc(=O)c3ccccc3[nH]2)cc1C(F)(F)F [Compound 59, 2-[6-methyl-5-(trifluoromethyl)-3-pyridyl]-1H-quinolin-4-one]	≥ 5
COc1ncc(C(F)(F)F)cc1-c1cc(=O)c2ccccc2[nH]1 [Compound 60, 2-[2-methoxy-5-(trifluoromethyl)-3-pyridyl]-1H-quinolin-4-one]	≥ 5
CCOc1ncc(C(F)(F)F)cc1-c1cc(=O)c2ccccc2[nH]1 [Compound 61, 2-[2-ethoxy-5-(trifluoromethyl)-3-pyridyl]-1H-quinolin-4-one]	≥ 5
CC(C)Oc1ncc(C(F)(F)F)cc1-c1cc(=O)c2ccccc2[nH]1 [Compound 62, 2-[2-isopropoxy-5-(trifluoromethyl)-3-pyridyl]-1H-quinolin-4-one]	≥ 5
O=c1cc(-c2ccc(F)c(C(F)(F)F)c2)[nH]c2ccccc12 [Compound 63, 2-[4-fluoro-3-(trifluoromethyl)phenyl]-1H-quinolin-4-one]	≥ 5
Cc1cccc(-c2cc(=O)c3ccccc3[nH]2)c1C [Compound 64, 2-(2,3-dimethylphenyl)-1H-quinolin-4-one]	≥ 5
Cc1ccccc1-c1cc(=O)c2ccccc2[nH]1 [Compound 65, 2-(o-tolyl)-1H-quinolin-4-one]	≥ 5

Compound	IC50 [µM]
COc1ccccc1-c1cc(=O)c2ccccc2[nH]1 [Compound 66, 2-(2-methoxyphenyl)-1H-quinolin-4-one]	≥ 5
COc1ccc(C)c(-c2cc(=O)c3ccccc3[nH]2)c1 [Compound 67, 2-(5-methoxy-2-methyl-phenyl)-1H-quinolin-4-one]	≥ 5
Cc1c(Cl)ccc(-c2cc(=O)c3ccccc3[nH]2)c1F [Compound 68, 2-(4-chloro-2-fluoro-3-methyl-phenyl)-1H-quinolin-4-one]	≥ 5
O=c1cc(-c2cc(C(F)(F)F)cc(F)c2F)[nH]c2ccccc12 [Compound 69, 2-[2,3-difluoro-5-(trifluoromethyl)phenyl]-1H-quinolin-4-one]	≥ 5
COc1cc(-c2cc(=O)c3ccccc3[nH]2)c(OC)cc1C [Compound 71, 2-(2,5-dimethoxy-4-methyl-phenyl)-1H-quinolin-4-one]	≥ 5
Cc1cc(F)c(-c2cc(=O)c3ccccc3[nH]2)cc1C [Compound 73, 2-(2-fluoro-4,5-dimethyl-phenyl)-1H-quinolin-4-one]	≥ 5
CC(C)(C)Oc1cccc(-c2cc(=O)c3ccccc3[nH]2)c1 [Compound 76, 2-(3-tert-butoxyphenyl)-1H-quinolin-4-one]	≥ 5
CCCOc1ccc(C(F)(F)F)cc1-c1cc(=O)c2ccccc2[nH]1 [Compound 77, 2-[2-propoxy-5-(trifluoromethyl)phenyl]-1H-quinolin-4-one]	≥ 5
CC(C)Oc1ccc(C(F)(F)F)cc1-c1cc(=O)c2ccccc2[nH]1 [Compound 78, 2-[2-isopropoxy-5-(trifluoromethyl)phenyl]-1H-quinolin-4-one]	≥ 5
COc1cc(C)cc(C)c1-c1cc(=O)c2ccccc2[nH]1 [Compound 79, 2-(2-methoxy-4,6-dimethyl-phenyl)-1H-quinolin-4-one]	≥ 5
CCc1cc(C(C)(C)C)ccc1-c1cc(=O)c2ccccc2[nH]1 [Compound 80, 2-(4-tert-butyl-2-ethyl-phenyl)-1H-quinolin-4-one]	< 0.5
Cc1cc(-c2cc(=O)c3ccccc3[nH]2)cc(C)c1Cl [Compound 81, 2-(4-chloro-3,5-dimethyl-phenyl)-1H-quinolin-4-one]	≥ 5
Cc1cc(C)cc(-c2cc(=O)c3ccccc3[nH]2)c1 [Compound 82, 2-(3,5-dimethylphenyl)-1H-quinolin-4-one]	≥ 5
O=c1cc(-c2ccccc2O)[nH]c2ccccc12 [Compound 83, 2-(2-hydroxyphenyl)-1H-quinolin-4-one]	≥ 5
O=c1cc(-c2cc(C(F)(F)F)ccc2O)[nH]c2ccccc12 [Compound 84, 2-[2-hydroxy-5-(trifluoromethyl)phenyl]-1H-quinolin-4-one]	≥ 5
COc1cc(C(F)(F)F)c(Cl)cc1-c1cc(=O)c2ccccc2[nH]1 [Compound 85, 2-[5-chloro-2-methoxy-4-(trifluoromethyl)phenyl]-1H-quinolin-4-one]	< 0.5
Cc1cc(OC(C)C)c(-c2cc(=O)c3ccccc3[nH]2)cc1C [Compound 86, 2-(2-isopropoxy-4,5-dimethyl-phenyl)-1H-quinolin-4-one]	≥ 5
Cc1cc(C(C)(C)C)ccc1-c1cc(=O)c2cc(F)ccc2[nH]1 [Compound 87, 2-(4-tert-butyl-2-methyl-phenyl)-6-fluoro-1H-quinolin-4-one]	< 0.5
Cc1cc(C(C)(C)C)ccc1-c1cc(=O)c2ccc(F)cc2[nH]1 [Compound 88, 2-(4-tert-butyl-2-methyl-phenyl)-7-fluoro-1H-quinolin-4-one]	< 0.5
COc1cc(C(C)(C)C)ccc1-c1cc(=O)c2cc(F)ccc2[nH]1 [Compound 89, 2-(4-tert-butyl-2-methoxy-phenyl)-6-fluoro-1H-quinolin-4-one]	< 0.5
